Measurements reported in PubChem BioAssay AID1508597 (Cure First, 2020)
Screen: 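Genes whose silencing sensitises or protects ovarian cancer cells against rucaparib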 (primary screen). Cells: human ovarian carcinoma lines grown from tumours: OCI-P5x (papillary serous) and OCI-C5x (clear cell). Knock-down reagent: siRNA pool against human genes, 1.25 pmol siRNA per well. Duration: 72 h or 96 h, depending on the cell culture. Conditions: rucaparib 20 µM (about IC30) or vehicle, present until read-out. Rucaparib or vehicle: Rucaparib. Cell line: OCI-C5x (clear cell). Read-out: 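ATP luminescence measured at 72 or 96 h according to the culture, then normalised and expressed as percent viability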. Scale: viability, normalised: higher = more viable cells remaining. Call rule: 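a well counts as a hit if its normalised viability is under 80 percent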. Meaning of the calls: active = viability under 80%; inactive = viability 80% or more.
Shown is an unselected part of the about 2,100 reagents, under one of the conditions tested. 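Calls flag viability under 80% in either arm, not effects specific to rucaparib; the reference for percent is not stated.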 Entries without a mark were called inactive. Some reagents were tested in more than one well and are listed for each. Not given: the 100% reference.

| Gene | technical replicate | viability, normalised (%) |
| --- | --- | --- |
| PIP5K1B | 1 | 41.7 (active) |
| PIP5K1B | 2 | 32.3 (active) |
| PIP5K1B | 3 | 44.8 (active) |
| TCF19 | 1 | 57.7 (active) |
| TCF19 | 2 | 73.9 (active) |
| TCF19 | 3 | 69.1 (active) |
| HNF1A | 1 | 33.1 (active) |
| HNF1A | 2 | 19.2 (active) |
| HNF1A | 3 | 39.3 (active) |
| ALPK2 | 1 | 80.5 |
| ALPK2 | 2 | 76 (active) |
| ALPK2 | 3 | 73.2 (active) |
| BRCC3 | 1 | 59.5 (active) |
| BRCC3 | 1 | 61 (active) |
| BRCC3 | 2 | 57.2 (active) |
| BRCC3 | 2 | 57.4 (active) |
| BRCC3 | 3 | 58.6 (active) |
| BRCC3 | 3 | 47.7 (active) |
| KPNA2 | 1 | 61.8 (active) |
| KPNA2 | 2 | 63.6 (active) |
| KPNA2 | 3 | 69.8 (active) |
| EPHA7 | 1 | 68 (active) |
| EPHA7 | 2 | 64.1 (active) |
| EPHA7 | 3 | 59 (active) |
| CDC14B | 1 | 45.1 (active) |
| CDC14B | 2 | 45 (active) |
| CDC14B | 3 | 41 (active) |
| SMARCC1 | 1 | 51.6 (active) |
| SMARCC1 | 2 | 43.1 (active) |
| SMARCC1 | 3 | 47 (active) |
| MAPK9 | 1 | 43.8 (active) |
| MAPK9 | 2 | 61.7 (active) |
| MAPK9 | 3 | 53.7 (active) |
| ZZZ3 | 1 | 91.7 |
| ZZZ3 | 2 | 59.2 (active) |
| ZZZ3 | 3 | 59.5 (active) |
| GDPD2 | 1 | 35.6 (active) |
| GDPD2 | 2 | 36 (active) |
| GDPD2 | 3 | 37.3 (active) |
| MBD2 | 1 | 52.6 (active) |
| MBD2 | 2 | 37.3 (active) |
| MBD2 | 3 | 38 (active) |
| TANK | 1 | 58.7 (active) |
| TANK | 2 | 66.8 (active) |
| TANK | 3 | 65.5 (active) |
| DTYMK | 1 | 59.5 (active) |
| DTYMK | 2 | 56.4 (active) |
| DTYMK | 3 | 51.1 (active) |
| MED29 | 1 | 41.6 (active) |
| MED29 | 2 | 44.3 (active) |
| MED29 | 3 | 40.7 (active) |
| MACROD2 | 1 | 59 (active) |
| MACROD2 | 2 | 44.9 (active) |
| MACROD2 | 3 | 43.8 (active) |
| ING2 | 1 | 53.7 (active) |
| ING2 | 2 | 46.9 (active) |
| ING2 | 3 | 46 (active) |
| RBM10 | 1 | 31.4 (active) |
| RBM10 | 2 | 38.8 (active) |
| RBM10 | 3 | 34.1 (active) |
| DTX3L | 1 | 63.1 (active) |
| DTX3L | 2 | 42 (active) |
| DTX3L | 3 | 59.6 (active) |
| MINK1 | 1 | 40.4 (active) |
| MINK1 | 2 | 33.2 (active) |
| MINK1 | 3 | 35.2 (active) |
| MMS22L | 1 | 68.8 (active) |
| MMS22L | 2 | 53.1 (active) |
| MMS22L | 3 | 60.4 (active) |
| RIPK3 | 1 | 69.6 (active) |
| RIPK3 | 2 | 68.9 (active) |
| RIPK3 | 3 | 63.8 (active) |
| ULK3 | 1 | 63.7 (active) |
| ULK3 | 2 | 49.9 (active) |
| ULK3 | 3 | 64.6 (active) |
